Assay [1] deals with MILI (PIWIL2) piRISC loaded with L1MC piRNA (26 nt). Briefly: pre-steady-state target cleavage rate (min^-1); higher = faster piRNA-guided slicing of the target. To be noted: guide: L1MC piRNA 5'p-UAACUAAAUACUAUGCAAGCUGUAGG
The procedure, abridged:
(§1)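 A burst-and-steady-state fit was used to obtain the pre-steady-state cleavage rate. The input data were sequencing reads of uncleaved targets, normalised to depth and to weakly complementary targets, from a […] transcribed, DNA-blocked target RNA library mixed with 1 nM active affinity-purified piRISC holding one synthetic guide, with or without 500 nM GTSF1 partner protein, in HEPES–potassium acetate buffer at 33 °C for 0–8 or 0–960 min. Three trials were pooled and k3 was capped at 0.0001 min^-1.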

The test system of assay [2] is MIWI (PIWIL1) piRISC loaded with L1MC piRNA (30 nt). The assay is described as above. To be noted: guide: L1MC piRNA 5'p-UAACUAAAUACUAUGCAAGCUGUAGGUCCU
Summed up: as §1

Assay [3] relates to EfPiwi piRISC loaded with L1MC piRNA (26 nt). In words: pre-steady-state target cleavage rate (min^-1); guide: L1MC piRNA 5'p-UAACUAAAUACUAUGCAAGCUGUAGG; MIWI and MILI are mouse PIWI proteins and EfPiwi is from a freshwater sponge; tags in brackets are library labels; higher = faster piRNA-guided slicing of the target. Summed up:
as §1

[4] abbreviates: auxiliary factor: 500 nM mouse GTSF1.
Setting [5] is: auxiliary factor: none (no GTSF1).
The mark [6] stands for this setting: auxiliary factor: 500 nM Ephydatia muelleri Gtsf1.

The text below walks through data of the supplement of paper PMC10338343.

± gives the standard deviation. The entries are a selection whose mix differs from that of the whole data set. Many entries were measured with a wide error. The list shows a part of the results.

Regarding UCCUCUCUACAGCUUGCAUAGUAUUUAGUUA, the “pre-steady-state target cleavage rate” value in assay [1] (setting [4]) is 0.28 ± 0.022; in assay [1] (setting [5]) it was 0.00895 ± 0.0022; in assay [2] (setting [4]), 0.797 ± 0.038; in assay [2] (setting [5]), 0.0529 ± 0.0081; in assay [3] (setting [6]), 0.0164 ± 0.006.
UCCUCCUACAGCUACGAUAGUAUUUACAAA: the “pre-steady-state target cleavage rate” value in assay [1] (setting [5]) stood at 0.000135 ± 0.02; in assay [2] (setting [5]), 0.000499 ± 0.013; in assay [3] (setting [6]) it was 0.000304 ± 0.0091.
In the case of UCCUGGAUGAGCUUGCAUAGUUAUUAGAAA, the “pre-steady-state target cleavage rate” value in assay [1] (setting [5]) stood at 0.000886 ± 0.0068; in assay [2] (setting [5]) it was 0.00108 ± 0.0066; in assay [3] (setting [6]), 0.00178 ± 0.0044.
As for UCCUGGAUGUCCUUGCACUAGUAUUUAGUUA, the “pre-steady-state target cleavage rate” value worked out at 0.000608 ± 0.0083 in assay [1] (setting [5]), 0.000802 ± 0.0085 in assay [2] (setting [5]) and 0.00173 ± 0.0065 in assay [3] (setting [6]).
As to UCCUGGAUGUCCAUGCAUAGUAUUUACUUA, the “pre-steady-state target cleavage rate” value in assay [1] (setting [5]) turned out to be 0.00104 ± 0.006; in assay [2] (setting [5]), 0.00127 ± 0.0057; in assay [3] (setting [6]) it was 0.000352 ± 0.009.
With UCCUGGUACAGGAUGCAUAGUAUUUAGAAA, the “pre-steady-state target cleavage rate” value was found to be 0.00115 ± 0.0054 in assay [1] (setting [5]), 0.00103 ± 0.0088 in assay [2] (setting [5]) and 0.00448 ± 0.004 in assay [3] (setting [6]).
For UCCUGGAUGUCCUUGCAUAGUUUUUUGUUA, the “pre-steady-state target cleavage rate” value stood at 0.000884 ± 0.0079 in assay [1] (setting [5]), 0.00155 ± 0.0046 in assay [2] (setting [5]) and 0.000342 ± 0.0086 in assay [3] (setting [6]).
For UCCUGGAUCAGCUUGCAUAGUAUUUAUUA, the “pre-steady-state target cleavage rate” value in assay [1] (setting [5]) is 0.00122 ± 0.005; in assay [2] (setting [5]) it was 0.00209 ± 0.0035; in assay [3] (setting [6]) it was 0.0033 ± 0.0024.
Consider UCCUGGAUGUGCUUGCAUACGUAUUUAGUUA, for which the “pre-steady-state target cleavage rate” value in assay [1] (setting [4]) stood at 0.00141 ± 0.0086; in assay [1] (setting [5]), 0.00177 ± 0.0051; in assay [2] (setting [4]), 0.000957 ± 0.012; in assay [2] (setting [5]), 0.000969 ± 0.0094; in assay [3] (setting [6]) it was 0.000784 ± 0.0055.
For the sequence UCCUCCUACAGCUUGCAUAGAUAUUACAAA, the entries for the “pre-steady-state target cleavage rate” value in assay [1] (setting [5]), in assay [2] (setting [5]) and in assay [3] (setting [6]) were 0.000751 ± 0.0066, 0.000715 ± 0.011 and 0.00199 ± 0.0055, respectively.
Turning to “UCCUGGUACAGCUUGCAUACAUAAAUCAAA [g12:g24:cont:t1A]”, the entries for the “pre-steady-state target cleavage rate” value in assay [1] (setting [5]), in assay [2] (setting [5]) and in assay [3] (auxiliary factor: none (no Gtsf1)) were 0.000959 ± 0.0073, 0.000352 ± 0.0092 and 0.000366 ± 0.018, respectively.
For the sequence UCCUGGAUGUCGAUGCAUUCUAUUUAGUUA, the entries for the “pre-steady-state target cleavage rate” value in assay [1] (setting [5]), in assay [2] (setting [5]) and in assay [3] (setting [6]) were 0.000456 ± 0.013, 0.000478 ± 0.0088 and 0.000141 ± 0.026, respectively.
As for UCCUGGAUGUCCUUGGUAAGUAUUUAGUAA, the “pre-steady-state target cleavage rate” value worked out at 0.000448 ± 0.011 in assay [1] (setting [5]), 0.000919 ± 0.0084 in assay [2] (setting [5]) and 0.00113 ± 0.0085 in assay [3] (setting [6]).
Take UCCUGGAUGUGCUUGCAUAGUCAUUUAGUUA: the “pre-steady-state target cleavage rate” value in assay [1] (setting [5]) was 0.00292 ± 0.0036; in assay [2] (setting [5]), 0.00295 ± 0.004; in assay [3] (setting [6]) it was 0.000435 ± 0.0075.
Turning to UCCUCCUACAGCUACCAUAGUAUUUACAAA, the “pre-steady-state target cleavage rate” value in assay [1] (setting [5]) worked out at 0.000819 ± 0.0063; in assay [2] (setting [5]), 0.000853 ± 0.0086; in assay [3] (setting [6]) it was 0.00225 ± 0.0038.
For the sequence UCCUGGUACACGUUGCAUAGUAUUUAGUAA, the “pre-steady-state target cleavage rate” value is 0.00278 ± 0.0045 in assay [1] (setting [5]), 0.00321 ± 0.0035 in assay [2] (setting [5]) and 0.00219 ± 0.0043 in assay [3] (setting [6]).
